Experimental data reported in the supplement of paper PMC4604168 (melanoma cell lines).
The list shows a part of the results. Repeats are few or missing, and single values can be far off.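 Cells were imaged in 1,536-well plates, and nuclei stained with an antibody against cleaved PARP were counted against all DNA-stained nuclei to give the apoptosis fraction. Screening doses were chosen to leave most cells alive, and resting and induced cleaved-PARP levels differ strongly between cell lines.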

Columns and labels:
Experiment in all cases: cleaved PARP positive nuclei fraction relative to DMSO control; melanoma cells; higher = more apoptosis
Details in all cases: library dose: low library concentration; 72 h
501Mel = system: 501Mel
A101D = system: A101D
A2058 = system: A2058
C32 = system: C32
CBRC008 = system: CBRC008 (line from a melanoma biopsy)
CBRC014 = system: CBRC014 (line from a melanoma biopsy)
CBRC016 = system: CBRC016 (line from a melanoma biopsy)
CBRC017 = system: CBRC017 (line from a melanoma biopsy)
COLO792 = system: COLO792
COLO800 = system: COLO800
COLO829 = system: COLO829
G361 = system: G361
IPC-298 = system: IPC-298
IST-MEL1 = system: IST-MEL1
LB2518-MEL = system: LB2518-MEL
LOXIMVI = system: LOXIMVI
A375 = system: A375
CBRC034 = system: CBRC034 (line from a melanoma biopsy)
MEL-HO = system: MEL-HO

| SMILES | cleaved PARP positive nuclei fraction (501Mel) [%] | cleaved PARP positive nuclei fraction (A101D) [%] | cleaved PARP positive nuclei fraction (A2058) [%] | cleaved PARP positive nuclei fraction (C32) [%] | cleaved PARP positive nuclei fraction (CBRC008) [%] | cleaved PARP positive nuclei fraction (CBRC014) [%] | cleaved PARP positive nuclei fraction (CBRC016) [%] | cleaved PARP positive nuclei fraction (CBRC017) [%] | cleaved PARP positive nuclei fraction (COLO792) [%] | cleaved PARP positive nuclei fraction (COLO800) [%] | cleaved PARP positive nuclei fraction (COLO829) [%] | cleaved PARP positive nuclei fraction (G361) [%] | cleaved PARP positive nuclei fraction (IPC-298) [%] | cleaved PARP positive nuclei fraction (IST-MEL1) [%] | cleaved PARP positive nuclei fraction (LB2518-MEL) [%] | cleaved PARP positive nuclei fraction (LOXIMVI) [%] | cleaved PARP positive nuclei fraction (A375) [%] | cleaved PARP positive nuclei fraction (CBRC034) [%] | cleaved PARP positive nuclei fraction (MEL-HO) [%] |
| --- | --- | --- | --- | --- | --- | --- | --- | --- | --- | --- | --- | --- | --- | --- | --- | --- | --- | --- | --- |
| COc1cc([C@@H]2c3cc4c(cc3[C@@H](O[C@@H]3O[C@@H]5CO[C@@H](C)O[C@H]5[C@H](O)[C@H]3O)[C@H]3COC(=O)[C@H]23)OCO4)cc(OC)c1O [etoposide] + Oc1nc(-c2ccc(C(F)(F)F)cc2)nc2c1CSCC2 [XAV939] (first compound 0.02 µM, partner dose 2 µM) | 68.3 | 85.5 | 169 | 77.2 | 71.4 | 88.5 | 66.1 | 242 | 254 | 124 | 78.8 | 79.4 | 100 | 24.5 | 77.2 | 37.1 | – | – | – |
| O=C(/C=C/c1cccnc1)NCCCCC1CCN(C(=O)c2ccccc2)CC1 + c1cc(-c2cnn3cc(-c4ccc(OCCN5CCCCC5)cc4)cnc23)ccn1 [Dorsomorphin] (first compound 0.01 µM, partner dose 0.4 µM) | 183 | 10 | 137 | 157 | 3370 | 104 | 176 | 282 | 446 | 193 | 68 | 1880 | 212 | 76.8 | 212 | 105 | – | – | – |
| Cc1ccc(Nc2nccc(N(C)c3ccc4c(C)n(C)nc4c3)n2)cc1S(N)(=O)=O [Pazopanib] + CCc1ccc(CCOc2ccc(CC3SC(=O)NC3=O)cc2)nc1 [pioglitazone] (first compound 0.4 µM, partner dose 2 µM) | 139 | 16.8 | 87.1 | 50.2 | 147 | 212 | 78.4 | 71.3 | 111 | 97.8 | 74.6 | 21.7 | 73.3 | 83.2 | 63.9 | 78.6 | – | – | – |
| CCCCCCCCCCCCCCCCCCOP(=O)([O-])OC1CC[N+](C)(C)CC1 [Perifosine] + COc1cc2ncnc(Nc3ccc(Oc4ccccc4)cc3)c2cc1OC [SrcI1] (first compound 0.4 µM, partner dose 2 µM) | 99.4 | 16.1 | 149 | 87.4 | 155 | 147 | 81.2 | 118 | 83.2 | 50.6 | 48.5 | 109 | 98.1 | 133 | 61 | 116 | – | – | – |
| O=C(Nc1cc(C(F)(F)F)cc(C(F)(F)F)c1)c1cc(Cl)ccc1O + COc1ccc(COc2ccc(Cc3cnc(N)nc3N)cc2OC)cc1 [GW2580] (first compound 0.016 µM, partner dose 1 µM) | 62.3 | 27 | 79.8 | 75 | 102 | 112 | 198 | 133 | 81.5 | 109 | 175 | 26.4 | 48.8 | 240 | 76.3 | 139 | – | – | – |
| COc1cc([C@@H]2c3cc4c(cc3[C@@H](O[C@@H]3O[C@@H]5CO[C@@H](C)O[C@H]5[C@H](O)[C@H]3O)[C@H]3COC(=O)[C@H]23)OCO4)cc(OC)c1O [etoposide] + O=C1NC(=O)/C(=C/c2ccc(-c3ccc(F)cc3O)o2)S1 [AS252424] (first compound 0.02 µM, partner dose 1 µM) | 73.2 | 21.6 | 234 | 41.5 | 74.2 | 77.1 | 53.3 | 97.6 | 60.5 | 31.9 | 59.3 | 53.5 | 29.8 | 40.3 | 149 | 90.1 | – | – | – |
| O=C(/C=C/c1cccnc1)NCCCCC1CCN(C(=O)c2ccccc2)CC1 + O=C1NC(=O)/C(=C/c2ccc(-c3ccc(F)cc3O)o2)S1 [AS252424] (first compound 0.01 µM, partner dose 1 µM) | 33.5 | 32.6 | 68.1 | 16.3 | 1020 | 193 | 396 | 208 | 862 | 328 | 424 | 4010 | 468 | 189 | 541 | 53.5 | – | – | – |
| O=C(/C=C/c1cccnc1)NCCCCC1CCN(C(=O)c2ccccc2)CC1 + O=c1cc(-c2cccc3c2Sc2ccccc2S3)oc(N2CCOCC2)c1 [KU55933] (first compound 0.01 µM, partner dose 1 µM) | 78.7 | 32.9 | 370 | 129 | 1800 | 128 | 702 | 436 | 227 | 20.9 | 68.9 | 2010 | 454 | 208 | 220 | 35.6 | – | – | – |
| O=C(/C=C/c1cccnc1)NCCCCC1CCN(C(=O)c2ccccc2)CC1 + Oc1nc(-c2ccc(C(F)(F)F)cc2)nc2c1CSCC2 [XAV939] (first compound 0.01 µM, partner dose 2 µM) | 61.2 | 11.6 | 101 | 114 | 286 | 101 | 123 | 73.5 | 231 | 245 | 74.1 | 1260 | 235 | 88.9 | 48.7 | 45.5 | – | – | – |
| O=c1[nH]nc(Sc2ncc([N+](=O)[O-])s2)n1-c1ccc2c(c1)OCCO2 + Oc1nc(-c2ccc(C(F)(F)F)cc2)nc2c1CSCC2 [XAV939] (first compound 0.2 µM, partner dose 2 µM) | 120 | 29.1 | 240 | 171 | 28.5 | 100 | 67.8 | 116 | 55.8 | 65.1 | 52 | 87.8 | 31.4 | 119 | 69.5 | 121 | – | – | – |
| Cc1cc(Nc2cc(N3CCN(C)CC3)nc(Sc3ccc(NC(=O)C4CC4)cc3)n2)n[nH]1 [Tozasertib] + COc1cc(N2CCC(N3CCN(C)CC3)CC2)ccc1Nc1ncc(Cl)c(Nc2ccccc2S(=O)(=O)C(C)C)n1 [NVP-TAE684] (first compound 0.006 µM, partner dose 0.08 µM) | 45.4 | 40.5 | 40.9 | 41.8 | 70.4 | 84.6 | 33.6 | 62.7 | 112 | 97 | 72.3 | 120 | 48.9 | 83.1 | 81 | 92.1 | – | – | – |
| O=C(Nc1cc(C(F)(F)F)cc(C(F)(F)F)c1)c1cc(Cl)ccc1O + O=c1cc(-c2cccc3c2Sc2ccccc2S3)oc(N2CCOCC2)c1 [KU55933] (first compound 0.016 µM, partner dose 1 µM) | 122 | 17.8 | 106 | 57.9 | 172 | 97.5 | 76.6 | 186 | 118 | 79.9 | 69.8 | 151 | 134 | 43.2 | 48 | 39.2 | – | – | – |
| CC[C@]1(O)C[C@H]2CN(CCc3c([nH]c4ccccc34)[C@@](C(=O)OC)(c3cc4c(cc3OC)N(C=O)[C@H]3[C@@](O)(C(=O)OC)[C@H](OC(C)=O)[C@]5(CC)C=CCN6CC[C@]43[C@@H]65)C2)C1 [vincristine] + CCN(CC)CCCCNc1ncc2cc(-c3cc(OC)cc(OC)c3)c(NC(=O)NC(C)(C)C)nc2n1 [PD173074] (first compound 0.0001 µM, partner dose 0.1 µM) | 25.4 | 42.7 | 394 | 254 | 85.3 | 108 | 61.5 | 75.6 | 219 | 85.3 | 160 | 79.6 | 227 | 74 | 64.4 | 151 | – | – | – |
| Cc1ccc(Nc2nccc(N(C)c3ccc4c(C)n(C)nc4c3)n2)cc1S(N)(=O)=O [Pazopanib] + COc1ccc2c(c1)CCC1C2CCC2(C)C(NCCCCCCN3C(=O)C=CC3=O)CCC12 [U73122] (first compound 0.4 µM, partner dose 0.4 µM) | 52.5 | 34.7 | 41.4 | 31.2 | 228 | 125 | 129 | 150 | 128 | 92.8 | 14.7 | 120 | 109 | 144 | 120 | 43.9 | – | – | – |
| CC[C@]1(O)C[C@H]2CN(CCc3c([nH]c4ccccc34)[C@@](C(=O)OC)(c3cc4c(cc3OC)N(C=O)[C@H]3[C@@](O)(C(=O)OC)[C@H](OC(C)=O)[C@]5(CC)C=CCN6CC[C@]43[C@@H]65)C2)C1 [vincristine] + O=C(Nc1ccccc1)c1cc([N+](=O)[O-])ccc1Cl [GW9662] (first compound 0.0001 µM, partner dose 2 µM) | 89.2 | 40.2 | 935 | 114 | 370 | 117 | 141 | 116 | 49.6 | 80.2 | 75.5 | 58.3 | 62.1 | 99 | 83 | 63.8 | – | – | – |
| O=C(Nc1cc(C(F)(F)F)cc(C(F)(F)F)c1)c1cc(Cl)ccc1O + Nc1ncn([C@H]2C[C@H](O)[C@@H](CO)O2)c(=O)n1 [decitabine] (first compound 0.016 µM, partner dose 0.1 µM) | – | 101 | 159 | 225 | 69.4 | 117 | 115 | 124 | 37.1 | 114 | 167 | 134 | 319 | 41 | – | 62 | 118 | 47.8 | 135 |
| N#CC[C@H](C1CCCC1)n1cc(-c2ncnc3[nH]ccc23)cn1 [ruxolitinib] + COc1cc(N2CCC(N3CCN(C)CC3)CC2)ccc1Nc1ncc(Cl)c(Nc2ccccc2S(=O)(=O)C(C)C)n1 [NVP-TAE684] (first compound 1 µM, partner dose 0.08 µM) | 62.6 | 49.5 | 104 | 65.2 | 157 | 82.8 | 95 | 108 | 148 | 35.7 | 70.1 | 184 | 51.3 | 203 | 60.4 | 62.6 | – | – | – |
| Cc1cn(-c2cc(NC(=O)c3ccc(C)c(Nc4nccc(-c5cccnc5)n4)c3)cc(C(F)(F)F)c2)cn1 [nilotinib] + COc1ccc(COc2ccc(Cc3cnc(N)nc3N)cc2OC)cc1 [GW2580] (first compound 0.2 µM, partner dose 1 µM) | 34.3 | 8.5 | 69.3 | 134 | 70.5 | 86.6 | 13.5 | 95 | 176 | 148 | 39.2 | 65.9 | 1610 | 35 | 59.7 | 220 | – | – | – |

Quoted from the listing (4 entries):

| SMILES | cleaved PARP positive nuclei fraction (501Mel) [%] | cleaved PARP positive nuclei fraction (A101D) [%] | cleaved PARP positive nuclei fraction (A2058) [%] | cleaved PARP positive nuclei fraction (C32) [%] | cleaved PARP positive nuclei fraction (CBRC008) [%] | cleaved PARP positive nuclei fraction (CBRC014) [%] | cleaved PARP positive nuclei fraction (CBRC016) [%] | cleaved PARP positive nuclei fraction (CBRC017) [%] | cleaved PARP positive nuclei fraction (COLO792) [%] | cleaved PARP positive nuclei fraction (COLO800) [%] | cleaved PARP positive nuclei fraction (COLO829) [%] | cleaved PARP positive nuclei fraction (G361) [%] | cleaved PARP positive nuclei fraction (IPC-298) [%] | cleaved PARP positive nuclei fraction (IST-MEL1) [%] | cleaved PARP positive nuclei fraction (LB2518-MEL) [%] | cleaved PARP positive nuclei fraction (LOXIMVI) [%] | cleaved PARP positive nuclei fraction (A375) [%] | cleaved PARP positive nuclei fraction (CBRC034) [%] | cleaved PARP positive nuclei fraction (MEL-HO) [%] |
| --- | --- | --- | --- | --- | --- | --- | --- | --- | --- | --- | --- | --- | --- | --- | --- | --- | --- | --- | --- |
| O=C(/C=C/c1cccnc1)NCCCCC1CCN(C(=O)c2ccccc2)CC1 + Oc1nc(-c2ccc(C(F)(F)F)cc2)nc2c1CSCC2 [XAV939] (first compound 0.01 µM, partner dose 2 µM) | 61.2 | 11.6 | 101 | 114 | 286 | 101 | 123 | 73.5 | 231 | 245 | 74.1 | 1260 | 235 | 88.9 | 48.7 | 45.5 | – | – | – |
| O=c1[nH]nc(Sc2ncc([N+](=O)[O-])s2)n1-c1ccc2c(c1)OCCO2 + Oc1nc(-c2ccc(C(F)(F)F)cc2)nc2c1CSCC2 [XAV939] (first compound 0.2 µM, partner dose 2 µM) | 120 | 29.1 | 240 | 171 | 28.5 | 100 | 67.8 | 116 | 55.8 | 65.1 | 52 | 87.8 | 31.4 | 119 | 69.5 | 121 | – | – | – |
| Cc1cc(Nc2cc(N3CCN(C)CC3)nc(Sc3ccc(NC(=O)C4CC4)cc3)n2)n[nH]1 [Tozasertib] + COc1cc(N2CCC(N3CCN(C)CC3)CC2)ccc1Nc1ncc(Cl)c(Nc2ccccc2S(=O)(=O)C(C)C)n1 [NVP-TAE684] (first compound 0.006 µM, partner dose 0.08 µM) | 45.4 | 40.5 | 40.9 | 41.8 | 70.4 | 84.6 | 33.6 | 62.7 | 112 | 97 | 72.3 | 120 | 48.9 | 83.1 | 81 | 92.1 | – | – | – |
| O=C(Nc1cc(C(F)(F)F)cc(C(F)(F)F)c1)c1cc(Cl)ccc1O + O=c1cc(-c2cccc3c2Sc2ccccc2S3)oc(N2CCOCC2)c1 [KU55933] (first compound 0.016 µM, partner dose 1 µM) | 122 | 17.8 | 106 | 57.9 | 172 | 97.5 | 76.6 | 186 | 118 | 79.9 | 69.8 | 151 | 134 | 43.2 | 48 | 39.2 | – | – | – |
